Results published in paper PMC7814351.

Protein sequences, listed by entry. Tags and fused reporters are not part of them. Lines headed by an entry give the natural chain unless they say otherwise; changes in a name come on top.
UniProt Q9HB90: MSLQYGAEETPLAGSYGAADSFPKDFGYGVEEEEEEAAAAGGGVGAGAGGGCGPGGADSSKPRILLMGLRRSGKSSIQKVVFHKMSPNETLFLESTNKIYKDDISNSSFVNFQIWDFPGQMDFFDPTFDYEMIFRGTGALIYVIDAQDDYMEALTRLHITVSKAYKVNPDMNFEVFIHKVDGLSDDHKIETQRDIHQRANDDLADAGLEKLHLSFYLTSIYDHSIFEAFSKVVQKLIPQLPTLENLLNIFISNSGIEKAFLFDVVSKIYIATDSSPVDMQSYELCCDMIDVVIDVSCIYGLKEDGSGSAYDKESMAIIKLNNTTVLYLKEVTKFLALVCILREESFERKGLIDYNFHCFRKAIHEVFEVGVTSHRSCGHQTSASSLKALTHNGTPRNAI
UniProt Q68DK2: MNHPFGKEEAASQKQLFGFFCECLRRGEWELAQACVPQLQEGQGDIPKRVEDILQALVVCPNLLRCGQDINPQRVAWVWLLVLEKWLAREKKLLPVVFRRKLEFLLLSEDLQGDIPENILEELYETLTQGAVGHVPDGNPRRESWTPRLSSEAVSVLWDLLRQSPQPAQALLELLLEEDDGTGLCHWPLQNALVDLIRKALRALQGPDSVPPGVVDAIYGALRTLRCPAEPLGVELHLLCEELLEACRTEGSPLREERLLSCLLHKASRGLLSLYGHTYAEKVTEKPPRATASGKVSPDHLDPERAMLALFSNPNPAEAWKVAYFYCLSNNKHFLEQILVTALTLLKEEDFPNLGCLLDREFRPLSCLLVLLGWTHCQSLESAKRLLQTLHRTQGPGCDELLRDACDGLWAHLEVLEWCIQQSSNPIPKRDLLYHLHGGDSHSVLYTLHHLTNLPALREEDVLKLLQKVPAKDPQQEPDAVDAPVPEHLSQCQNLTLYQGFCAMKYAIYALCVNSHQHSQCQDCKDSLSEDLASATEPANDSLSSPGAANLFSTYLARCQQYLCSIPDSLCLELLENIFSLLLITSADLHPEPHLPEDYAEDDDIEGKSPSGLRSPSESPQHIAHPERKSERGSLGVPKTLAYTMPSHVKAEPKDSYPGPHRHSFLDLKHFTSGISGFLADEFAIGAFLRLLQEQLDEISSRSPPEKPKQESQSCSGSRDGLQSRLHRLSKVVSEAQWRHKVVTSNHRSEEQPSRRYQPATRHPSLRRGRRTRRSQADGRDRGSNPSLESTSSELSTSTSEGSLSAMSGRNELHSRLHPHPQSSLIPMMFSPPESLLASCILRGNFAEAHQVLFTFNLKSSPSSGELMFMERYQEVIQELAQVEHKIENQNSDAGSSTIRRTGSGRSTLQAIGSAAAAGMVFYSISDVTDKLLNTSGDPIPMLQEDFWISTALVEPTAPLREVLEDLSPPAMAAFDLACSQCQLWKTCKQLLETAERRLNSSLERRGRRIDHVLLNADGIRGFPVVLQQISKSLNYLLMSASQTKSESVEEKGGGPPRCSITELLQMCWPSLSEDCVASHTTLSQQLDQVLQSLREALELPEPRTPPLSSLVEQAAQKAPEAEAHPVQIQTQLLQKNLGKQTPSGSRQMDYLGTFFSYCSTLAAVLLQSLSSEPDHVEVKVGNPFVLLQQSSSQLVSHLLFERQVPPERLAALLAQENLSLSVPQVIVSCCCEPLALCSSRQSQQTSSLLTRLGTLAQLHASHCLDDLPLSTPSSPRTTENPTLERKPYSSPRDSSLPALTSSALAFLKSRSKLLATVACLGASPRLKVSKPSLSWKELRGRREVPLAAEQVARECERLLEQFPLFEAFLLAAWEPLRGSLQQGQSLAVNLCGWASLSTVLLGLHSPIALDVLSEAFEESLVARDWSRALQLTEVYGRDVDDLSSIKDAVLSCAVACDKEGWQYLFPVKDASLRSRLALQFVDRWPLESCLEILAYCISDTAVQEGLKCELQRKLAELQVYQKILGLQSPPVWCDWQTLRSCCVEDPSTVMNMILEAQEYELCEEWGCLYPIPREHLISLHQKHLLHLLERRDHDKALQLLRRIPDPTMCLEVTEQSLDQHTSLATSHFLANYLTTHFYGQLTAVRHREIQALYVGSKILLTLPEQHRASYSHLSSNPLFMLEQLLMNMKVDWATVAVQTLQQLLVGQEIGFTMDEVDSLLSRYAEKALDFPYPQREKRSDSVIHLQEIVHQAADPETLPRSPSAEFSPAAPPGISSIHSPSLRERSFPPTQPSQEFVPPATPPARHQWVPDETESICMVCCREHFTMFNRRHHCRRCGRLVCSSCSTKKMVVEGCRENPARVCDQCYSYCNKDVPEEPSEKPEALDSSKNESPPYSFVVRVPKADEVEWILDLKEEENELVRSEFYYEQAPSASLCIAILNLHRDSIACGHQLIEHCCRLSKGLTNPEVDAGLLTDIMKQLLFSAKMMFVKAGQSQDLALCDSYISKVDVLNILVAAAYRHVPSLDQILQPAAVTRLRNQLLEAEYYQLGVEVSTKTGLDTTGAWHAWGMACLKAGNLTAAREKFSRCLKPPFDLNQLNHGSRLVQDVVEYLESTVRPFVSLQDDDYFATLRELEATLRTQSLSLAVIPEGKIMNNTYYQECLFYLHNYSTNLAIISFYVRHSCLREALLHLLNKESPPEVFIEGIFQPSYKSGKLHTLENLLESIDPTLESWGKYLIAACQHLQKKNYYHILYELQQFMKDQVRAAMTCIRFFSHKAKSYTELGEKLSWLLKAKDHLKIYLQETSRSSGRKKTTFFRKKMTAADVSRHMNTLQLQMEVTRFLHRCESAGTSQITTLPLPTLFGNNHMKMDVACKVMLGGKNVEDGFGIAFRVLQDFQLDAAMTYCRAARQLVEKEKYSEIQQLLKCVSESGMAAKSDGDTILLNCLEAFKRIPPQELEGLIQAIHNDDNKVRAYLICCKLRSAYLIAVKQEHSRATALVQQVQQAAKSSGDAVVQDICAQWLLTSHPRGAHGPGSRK

Tests used:
Assay in all cases: proximity labelling; BioID: BirA*-FLAG-RagC baits in stable HEK293 Flp-In T-REx cells, tetracycline (1 µg/ml) and biotin (50 µM) for 24 h; biotinylated proteins captured on streptavidin-sepharose and identified by mass spectrometry; SAINT, FDR ≤1%
[1] = target: C-terminally BirA*-FLAG-tagged RagC, wild type (human) (UniProt Q9HB90)
[2] = target: C-terminally BirA*-FLAG-tagged RagC, GDP-locked (S75N) (human) (UniProt Q9HB90)
[3] = target: C-terminally BirA*-FLAG-tagged RagC, GTP-locked (Q120L) (human) (UniProt Q9HB90)

SPG15 (spastizin), BioID prey (from UniProt Q68DK2 1-2539)
binding [1]: no binding
binding [2]: binds
binding [3]: no binding

These are yes or no findings as the source states them, for the method shown. Binding seen in cells or lysates may run through a third protein. These calls come from enrichment with a bait or labelling near it, and not all partners need be listed. For part of these data: No binding means not detected with the bait.
